Source: article PMC6098020
These are yes or no findings as the source states them, for the method shown. In cells and extracts the contact can be indirect. These calls come from enrichment with a bait or labelling near it, and not all partners need be listed.

By UniProt entry, the sequences of proteins in these tests, tags left out.
UniProt Q3SXY8: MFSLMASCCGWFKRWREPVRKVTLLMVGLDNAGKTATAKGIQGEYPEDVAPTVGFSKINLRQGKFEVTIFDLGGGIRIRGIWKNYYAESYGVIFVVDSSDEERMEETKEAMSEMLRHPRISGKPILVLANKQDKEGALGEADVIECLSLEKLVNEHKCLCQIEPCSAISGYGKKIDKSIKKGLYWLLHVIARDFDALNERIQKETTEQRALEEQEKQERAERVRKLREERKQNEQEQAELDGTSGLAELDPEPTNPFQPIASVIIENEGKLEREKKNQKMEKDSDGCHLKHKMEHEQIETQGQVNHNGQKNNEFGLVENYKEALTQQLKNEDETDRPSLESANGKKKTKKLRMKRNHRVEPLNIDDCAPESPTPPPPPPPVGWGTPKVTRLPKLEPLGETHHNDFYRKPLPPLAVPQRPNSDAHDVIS
UniProt P36405: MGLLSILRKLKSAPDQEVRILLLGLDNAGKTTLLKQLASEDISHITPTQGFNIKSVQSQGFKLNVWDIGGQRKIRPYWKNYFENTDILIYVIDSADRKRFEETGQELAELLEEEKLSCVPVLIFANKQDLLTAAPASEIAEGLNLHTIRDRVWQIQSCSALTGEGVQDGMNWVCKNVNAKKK
UniProt P35579: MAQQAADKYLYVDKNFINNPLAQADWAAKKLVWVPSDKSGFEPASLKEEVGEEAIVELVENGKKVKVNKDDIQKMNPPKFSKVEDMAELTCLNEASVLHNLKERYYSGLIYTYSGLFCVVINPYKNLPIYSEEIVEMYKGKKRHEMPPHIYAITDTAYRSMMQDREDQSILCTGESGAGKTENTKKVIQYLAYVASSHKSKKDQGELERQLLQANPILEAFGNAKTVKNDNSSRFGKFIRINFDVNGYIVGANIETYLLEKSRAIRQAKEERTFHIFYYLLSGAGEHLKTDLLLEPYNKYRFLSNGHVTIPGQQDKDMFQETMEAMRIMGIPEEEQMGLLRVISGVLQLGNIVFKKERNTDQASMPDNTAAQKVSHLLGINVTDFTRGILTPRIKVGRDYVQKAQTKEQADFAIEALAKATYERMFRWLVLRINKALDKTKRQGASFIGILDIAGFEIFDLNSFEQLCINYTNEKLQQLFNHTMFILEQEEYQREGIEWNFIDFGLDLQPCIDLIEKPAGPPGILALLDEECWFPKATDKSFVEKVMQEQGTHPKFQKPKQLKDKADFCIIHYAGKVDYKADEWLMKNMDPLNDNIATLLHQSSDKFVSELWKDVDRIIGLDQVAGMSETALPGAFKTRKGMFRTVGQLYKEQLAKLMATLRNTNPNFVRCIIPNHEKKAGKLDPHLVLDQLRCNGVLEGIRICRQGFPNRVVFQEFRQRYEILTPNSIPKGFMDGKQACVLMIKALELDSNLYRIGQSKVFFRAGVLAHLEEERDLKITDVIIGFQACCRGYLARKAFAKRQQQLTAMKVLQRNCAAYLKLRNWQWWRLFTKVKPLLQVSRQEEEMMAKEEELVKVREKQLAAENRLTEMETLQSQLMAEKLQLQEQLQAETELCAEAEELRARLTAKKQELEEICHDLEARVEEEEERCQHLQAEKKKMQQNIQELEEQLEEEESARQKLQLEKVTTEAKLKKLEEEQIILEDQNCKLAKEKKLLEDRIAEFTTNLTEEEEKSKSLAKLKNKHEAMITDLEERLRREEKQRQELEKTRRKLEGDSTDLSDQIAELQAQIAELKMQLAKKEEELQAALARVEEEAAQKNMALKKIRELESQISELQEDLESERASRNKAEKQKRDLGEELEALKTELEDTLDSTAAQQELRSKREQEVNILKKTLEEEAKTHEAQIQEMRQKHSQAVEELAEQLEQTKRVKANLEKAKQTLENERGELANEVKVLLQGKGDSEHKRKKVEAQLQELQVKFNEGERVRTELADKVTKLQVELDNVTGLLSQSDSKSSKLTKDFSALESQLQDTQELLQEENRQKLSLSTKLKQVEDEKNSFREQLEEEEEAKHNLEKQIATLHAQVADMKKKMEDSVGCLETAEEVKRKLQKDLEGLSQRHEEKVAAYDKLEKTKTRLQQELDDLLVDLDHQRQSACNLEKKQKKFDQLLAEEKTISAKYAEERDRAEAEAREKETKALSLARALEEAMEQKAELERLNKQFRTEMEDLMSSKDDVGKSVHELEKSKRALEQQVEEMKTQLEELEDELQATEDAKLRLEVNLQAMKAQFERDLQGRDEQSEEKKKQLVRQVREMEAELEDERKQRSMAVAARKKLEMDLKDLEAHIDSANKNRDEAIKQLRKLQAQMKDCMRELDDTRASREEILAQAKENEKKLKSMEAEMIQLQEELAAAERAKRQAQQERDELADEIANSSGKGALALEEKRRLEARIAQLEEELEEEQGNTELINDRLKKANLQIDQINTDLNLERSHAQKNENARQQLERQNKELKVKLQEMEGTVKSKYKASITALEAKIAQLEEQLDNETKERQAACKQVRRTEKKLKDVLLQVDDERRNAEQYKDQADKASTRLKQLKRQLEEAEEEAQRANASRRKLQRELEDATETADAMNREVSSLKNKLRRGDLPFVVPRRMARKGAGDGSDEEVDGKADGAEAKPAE
UniProt P63279: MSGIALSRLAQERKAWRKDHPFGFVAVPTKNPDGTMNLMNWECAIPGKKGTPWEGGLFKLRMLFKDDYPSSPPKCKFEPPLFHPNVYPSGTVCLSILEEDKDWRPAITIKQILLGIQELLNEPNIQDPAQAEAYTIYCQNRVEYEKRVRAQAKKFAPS

B1: RAB11FIP5 (protein, UniProt Q9BXF6 1-653)
chain: MALVRGAEPAAGPSRWLPTHVQVTVLRARGLRGKSSGAGSTSDAYTVIQVGREKYSTSVVEKTHGCPEWREECSFELPPGALDGLLRAQEADAGPAPWAASSAAACELVLTTMHRSLIGVDKFLGQATVALDEVFGAGRAQHTQWYKLHSKPGKKEKERGEIEVTIQFTRNNLSASMFDLSMKDKPRSPFSKIRDKMKGKKKYDLESASAILPSSAIEDPDLGSLGKMGKAKGFFLRNKLRKSSLTQSNTSLGSDSTLSSASGSLAYQGPGAELLTRSPSRSSWLSTEGGRDSAQSPKLFTHKRTYSDEANQMRVAPPRALLDLQGHLDAASRSSLCVNGSHIYNEEPQGPVRHRSSISGSLPSSGSLQAVSSRFSEEGPRSTDDTWPRGSRSNSSSEAVLGQEELSAQAKVLAPGASHPGEEEGARLPEGKPVQVATPIVASSEAVAEKEGARKEERKPRMGLFHHHHQGLSRSELGRRSSLGEKGGPILGASPHHSSSGEEKAKSSWFGLREAKDPTQKPSPHPVKPLSAAPVEGSPDRKQSRSSLSIALSSGLEKLKTVTSGSIQPVTQAPQAGQMVDTKRLKDSAVLDQSAKYYHLTHDELISLLLQRERELSQRDEHVQELESYIDRLLVRIMETSPTLLQIPPGPPK
B2: IFT74 (protein, UniProt Q96LB3 1-600)
chain: MASNHKSSAARPVSRGGVGLTGRPPSGIRPLSGNIRVATAMPPGTARPGSRGCPIGTGGVLSSQIKVAHRPVTQQGLTGMKTGTKGPQRQILDKSYYLGLLRSKISELTTEVNKLQKGIEMYNQENSVYLSYEKRAETLAVEIKELQGQLADYNMLVDKLNTNTEMEEVMNDYNMLKAQNDRETQSLDVIFTERQAKEKQIRSVEEEIEQEKQATDDIIKNMSFENQVKYLEMKTTNEKLLQELDTLQQQLDSQNMKKESLEAEIAHSQVKQEAVLLHEKLYELESHRDQMIAEDKSIGSPMEEREKLLKQIKDDNQEIASMERQLTDTKEKINQFIEEIRQLDMDLEEHQGEMNQKYKELKKREEHMDTFIETFEETKNQELKRKAQIEANIVALLEHCSRNINRIEQISSITNQELKMMQDDLNFKSTEVQKSQSTAQNLTSDIQRLQLDLQKMELLESKMTEEQHSLKSKIKQMTTDLEIYNDLPALKSSGEEKIKKLHQERMILSTHRNAFKKIMEKQNIEYEALKTQLQENETHSQLTNLERKWQHLEQNNFAMKEFIATKSQESDYQPIKKNVTKQIAEYNKTIVDALHSTSGN
B3: TULP3 (protein, UniProt O75386 1-442)
chain: MEASRCRLSPSGDSVFHEEMMKMRQAKLDYQRLLLEKRQRKKRLEPFMVQPNPEARLRRAKPRASDEQTPLVNCHTPHSNVILHGIDGPAAVLKPDEVHAPSVSSSVVEEDAENTVDTASKPGLQERLQKHDISESVNFDEETDGISQSACLERPNSASSQNSTDTGTSGSATAAQPADNLLGDIDDLEDFVYSPAPQGVTVRCRIIRDKRGMDRGLFPTYYMYLEKEENQKIFLLAARKRKKSKTANYLISIDPVDLSREGESYVGKLRSNLMGTKFTVYDRGICPMKGRGLVGAAHTRQELAAISYETNVLGFKGPRKMSVIIPGMTLNHKQIPYQPQNNHDSLLSRWQNRTMENLVELHNKAPVWNSDTQSYVLNFRGRVTQASVKNFQIVHKNDPDYIVMQFGRVADDVFTLDYNYPLCAVQAFGIGLSSFDSKLACE

The molecules below were run against HA-BirA-tagged ARL13B (human) (UniProt Q3SXY8) (assay: proximity labelling; Bio-ID: HA-BirA-ARL13B stable RCTE cells against HA-BirA cells, serum-free medium with biotin for 24 h, streptavidin beads, gel bands to mass spectrometry).

binding, binds:
ARL3 (from UniProt P36405 1-182)
Myh9 (from UniProt P35579 1-1960)
UBC9 (from UniProt P63279 1-158)

Molecular target: HA-BirA-tagged ARL13B (human) (UniProt Q3SXY8)
Experiment: as above
Remark: another data set of the same source

binding, binds:
B1
B2
B3
